Reference: patent US20080275027A1, “Piperazinone Derivatives Useful as Histamine H3 Receptor Antagonists and/or Inverse Agonists” (priority 2005, published 2008)
Some results were stated once for a whole list of compounds, not compound by compound.

Chains of the proteins cited; added tags and fusions are not shown. Lines headed by an entry give the natural chain unless they say otherwise; changes in a name come on top.
UniProt P35367, whole entry: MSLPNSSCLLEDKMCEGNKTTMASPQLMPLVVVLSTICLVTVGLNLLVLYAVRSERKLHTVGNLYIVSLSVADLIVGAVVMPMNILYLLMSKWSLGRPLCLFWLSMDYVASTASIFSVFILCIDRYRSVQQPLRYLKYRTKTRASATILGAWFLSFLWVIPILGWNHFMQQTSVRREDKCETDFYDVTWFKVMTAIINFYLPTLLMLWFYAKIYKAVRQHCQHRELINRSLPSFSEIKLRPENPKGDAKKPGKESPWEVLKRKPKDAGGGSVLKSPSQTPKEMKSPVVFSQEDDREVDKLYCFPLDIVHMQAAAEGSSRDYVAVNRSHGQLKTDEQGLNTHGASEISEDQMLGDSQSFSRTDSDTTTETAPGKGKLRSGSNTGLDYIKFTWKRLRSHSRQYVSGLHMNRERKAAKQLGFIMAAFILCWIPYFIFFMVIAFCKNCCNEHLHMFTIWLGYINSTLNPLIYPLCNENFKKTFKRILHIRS
UniProt Q9Y5N1: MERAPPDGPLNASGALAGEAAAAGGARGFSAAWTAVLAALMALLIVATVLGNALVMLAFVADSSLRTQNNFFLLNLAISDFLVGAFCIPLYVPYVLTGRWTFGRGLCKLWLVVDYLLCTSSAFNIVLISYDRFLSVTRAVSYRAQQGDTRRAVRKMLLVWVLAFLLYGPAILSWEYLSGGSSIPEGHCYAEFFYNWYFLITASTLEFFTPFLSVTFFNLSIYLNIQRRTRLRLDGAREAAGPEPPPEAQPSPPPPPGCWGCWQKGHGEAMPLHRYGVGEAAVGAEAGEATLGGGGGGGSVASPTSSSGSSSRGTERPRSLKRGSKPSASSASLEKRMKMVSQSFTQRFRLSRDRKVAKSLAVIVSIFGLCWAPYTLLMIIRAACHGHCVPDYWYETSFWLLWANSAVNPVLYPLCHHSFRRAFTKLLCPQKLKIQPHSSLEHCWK

What was measured:
[1] = biological target: T1, human H1 receptor (Homo sapiens, UniProt P35367); test: Histamine H1 functional antagonist assay (FLIPR, CHO cells); assay type: cell-based; details: functional antagonism vs histamine at EC80; calcium fluorescence (FLIPR)
T1 construct: expressed in transfected cells

[2] = biological target: histamine H3 receptor (Homo sapiens, UniProt Q9Y5N1); test: Histamine H3 functional antagonist assay ([35S]-GTPγS SPA, CHO K1 cell membranes); details: functional antagonism vs histamine at EC80; GTPγS binding

Row | Compound | average pKi (pKb) at H1 [1] | average pKi (pKb) at H3 [2]
1 | O=C(c1cccc2ncccc12)N1CCN(c2ccc(OCCCN3CCCCCC3)cc2)C(=O)C1 [Example E116] | less than 6.0 | greater than 8.0
2 | O=C(c1cccc2ncccc12)N1CCN(c2ccc(OC3CCN(C4CCCC4)CC3)cc2)C(=O)C1 [Example E143] | less than 6.0 | greater than 8.0
3 | C[C@@H]1CCCN1CCCOc1ccc(N2CCN(C(=O)c3c(F)cccc3F)CC2=O)cc1 [Example E167] | less than 6.0 | greater than 8.0
4 | O=C(c1ccc(F)c2ncccc12)N1CCN(c2ccc(OC3CCN(C4CCC4)CC3)cc2)C(=O)C1 [Example E113] | less than 6.0 | greater than 8.0
5 | CC1CCCN1CCCOc1ccc(N2CCN(C(=O)c3cnn4cccnc34)CC2=O)cc1 (stereo not shown) [Example E120] | less than 6.0 | greater than 8.0
6 | COc1cc(Cl)ccc1C(=O)N1CCN(c2ccc(OC3CCN(C4CCC4)CC3)cc2)C(=O)C1 [Example E7] | less than 6.0 | greater than 8.0
7 | C[C@@H]1CCCN1CCCOc1ccc(N2CCN(C(=O)c3cn(C)nn3)CC2=O)cc1 [Example E159] | less than 6.0 | greater than 8.0
8 | O=C(c1ccc(F)c2ncccc12)N1CCN(c2ccc(OC3CCN(C4CCCC4)CC3)cc2)C(=O)C1 [Example E144] | less than 6.0 | greater than 8.0
9 | CC(C)N1CCC(Oc2ccc(N3CCN(C(=O)C4CCCCC4)CC3=O)cc2)CC1 [Example E24] | less than 6.0 | greater than 8.0
10 | Cc1c(C(=O)N2CCN(c3ccc(OCCCN4CCCCC4)cc3)C(=O)C2)c2ccccc2n1C [Example E34] | less than 6.0 | greater than 8.0
11 | O=C(c1ccc(C(=O)N2CCN(c3ccc(OCCCN4CCCCCC4)cc3)C(=O)C2)cc1)N1CCC1 [Example E102] | less than 6.0 | greater than 8.0
12 | O=C(c1ccc(F)c2ncccc12)N1CCN(c2ccc(OCCCN3CCCC3)cc2)C(=O)C1 [Example E153] | less than 6.0 | greater than 8.0
13 | CCc1ccc(C(=O)N2CCN(c3ccc(OC4CCN(C5CCC5)CC4)cc3)C(=O)C2)cc1 [Example E4] | less than 6.0 | greater than 8.0
14 | Cc1ccc(C(=O)N2CCN(c3ccc(OCCCN4CCCC4)cc3)C(=O)C2)cn1 [Example E71] | less than 6.0 | greater than 8.0
15 | Cn1cc(C(=O)N2CCN(c3ccc(OC4CCN(C5CCC5)CC4)cc3)C(=O)C2)nn1 [Example E155] | less than 6.0 | greater than 8.0
16 | C[C@@H]1CCCN1CCCOc1ccc(N2CCN(C(=O)c3ccc(C(=O)N4CCC4)cc3)CC2=O)cc1 [Example E123] | less than 6.0 | greater than 8.0
17 | Cc1cc(C(=O)N2CCN(c3ccc(OCCCN4CCC[C@H]4C)cc3)C(=O)C2)nn1C [Example E160] | less than 6.0 | greater than 8.0
18 | COc1ccc(C(=O)N2CCN(c3ccc(OCCCN4CCCCC4)cc3)C(=O)C2)cc1C(C)C [Example E35] | less than 6.0 | greater than 8.0
19 | O=C(c1ccc2c(c1)OCO2)N1CCN(c2ccc(OCCCN3CCCCC3)cc2)C(=O)C1 [Example E174] | less than 6.0 | greater than 8.0
20 | O=C(C1CCCCC1)N1CCN(c2ccc(OC3CCN(C4CCC4)CC3)cc2)C(=O)C1 [Example E13] | less than 6.0 | greater than 8.0
